Results deposited as PubChem BioAssay AID1224826 (NIAID, 2016).

Assay: 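Genes that change LPS-induced Tnf promoter activity in mouse macrophages when knocked down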 (primary screen)
Cell system: RAW264.7 G9 macrophages from mouse bearing reporters for p65 (GFP) and the Tnf promoter (mCherry)
Reagent: siRNA pool against mouse genes, 100 nM
Timing: 16 h of LPS stimulation, after 2 days of siRNA transfection
Conditions: bacterial lipopolysaccharide (Salmonella minnesota R595), 10 ng/ml
Measured: 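Nuclear mCherry signal of the Tnf promoter reporter measured by imaging after background removal, scaled to each plate median and turned into robust z-scores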
Scale: Tnf reporter robust z-score: higher = stronger Tnf promoter reporter signal after LPS; Tnf reporter intensity: higher = stronger Tnf promoter reporter signal
Active means: 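Called active when robust z-score is at most -1.3, matching the median of the Tlr4 knock-down control, or over 3; control wells and wells with under 50 cells never active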
Meaning of the calls: active = Tnf reporter clearly lowered or raised; inactive = no clear change in Tnf reporter
Shown is a random part of about 17,000 reagents. In the full data, about 1,110 (6.6%) are marked active. 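Active means lowered or raised reporter signal; replicate intensities are raw and not normalised per plate.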

gene symbol	Tnf reporter robust z-score	fewer than 50 cells in well	Tnf reporter intensity, replicate 1	Tnf reporter intensity, replicate 2	outcome
Klrb1f (killer cell lectin-like receptor subfamily B member 1F)	-0.32	enough cells in well	150	139	inactive
Tmem87a (transmembrane protein 87A)	-0.06	enough cells in well	143	177	inactive
Tmem97 (transmembrane protein 97)	-0.84	enough cells in well	157	58.7	inactive
Dvl3 (dishevelled segment polarity protein 3)	0.19	enough cells in well	238	228	inactive
Tnrc6b (trinucleotide repeat containing 6b)	0.9	enough cells in well	220	230	inactive
Artn (artemin)	0.39	enough cells in well	220	160	inactive
Or12k7 (olfactory receptor family 12 subfamily K member 7)	-0.53	enough cells in well	168	85.5	inactive
Fpr-rs7 (formyl peptide receptor, related sequence 7)	-0.57	enough cells in well	212	103	inactive
Or1n1b (olfactory receptor family 1 subfamily N member 1B)	0.56	enough cells in well	242	124	inactive
Rdh9 (retinol dehydrogenase 9)	0.05	enough cells in well	156	104	inactive
Zbtb11 (zinc finger and BTB domain containing 11)	1.26	enough cells in well	260	266	inactive
Stc1 (stanniocalcin 1)	0.79	enough cells in well	184	73.5	inactive
Foxc2 (forkhead box C2)	-0.33	enough cells in well	219	218	inactive
Or10al4 (olfactory receptor family 10 subfamily AL member 4)		fewer than 50 cells per well; well left out of calls	117	183	inactive
AI467606 (expressed sequence AI467606)	-0.26	enough cells in well	162	196	inactive
Pbx4 (pre B cell leukemia homeobox 4)	-0.47	enough cells in well	127	38.3	inactive
Dusp6 (dual specificity phosphatase 6)	2.68	enough cells in well	385	291	inactive
Cers5 (ceramide synthase 5)	-0.53	enough cells in well	175	96.5	inactive
Wars2 (tryptophanyl tRNA synthetase 2 (mitochondrial))	0.92	enough cells in well	149	123	inactive
Dlg4 (discs large MAGUK scaffold protein 4)		fewer than 50 cells per well; well left out of calls	127	82.1	inactive
Ofd1 (OFD1, centriole and centriolar satellite protein)	1.18	enough cells in well	287	294	inactive
Zic2 (zinc finger protein of the cerebellum 2)	-0.38	enough cells in well	270	164	inactive
Lpcat3 (lysophosphatidylcholine acyltransferase 3)	-0.55	enough cells in well	212	126	inactive
Vmn1r54 (vomeronasal 1 receptor 54)		fewer than 50 cells per well; well left out of calls	60.8	42.6	inactive
Rassf1 (Ras association (RalGDS/AF-6) domain family member 1)	0.34	enough cells in well	332	236	inactive
Kdm5b (lysine demethylase 5B)	-0.14	enough cells in well	205	160	inactive
Spag11a (sperm associated antigen 11A)	1.32	enough cells in well	154	135	inactive
Axl (AXL receptor tyrosine kinase)	0.37	enough cells in well	267	138	inactive
Trim59 (tripartite motif-containing 59)		fewer than 50 cells per well; well left out of calls	155	93.3	inactive
Spint4 (serine protease inhibitor, Kunitz type 4)	1.25	enough cells in well	247	277	inactive
Entpd6 (ectonucleoside triphosphate diphosphohydrolase 6)	2.48	enough cells in well	433	265	inactive
Clec2h (C-type lectin domain family 2, member h)	0.71	enough cells in well	188	144	inactive
Or6c214 (olfactory receptor family 6 subfamily C member 214)		fewer than 50 cells per well; well left out of calls	34.3	41.2	inactive
Bckdk (branched chain ketoacid dehydrogenase kinase)	-0.83	enough cells in well	124	128	inactive
Mrpl57 (mitochondrial ribosomal protein L57)	4.08	enough cells in well	642	194	active
Slc30a3	0.66	enough cells in well	202	217	inactive
Kctd9 (potassium channel tetramerisation domain containing 9)	-1.08	enough cells in well	136	74.4	inactive
Ston2 (stonin 2)	0.21	enough cells in well	203	77.9	inactive
Set (SET nuclear proto-oncogene)	-0.19	enough cells in well	234	224	inactive
Or5d36 (olfactory receptor family 5 subfamily D member 36)	-1.02	enough cells in well	113	107	inactive
